Laboratory results: article PMC12062478, “Screening herbal and natural product libraries to aid discovery of novel allosteric modulators of human P2X7” (Purinergic Signalling, 2024)
Some entries of the source have several records that differ or are many. They are shown here; other results are not. The source may hold further records. Values that stand side by side differ, and nothing given here explains why; dose, time, organism, isomer or construct need not be as stated for each record.

By UniProt entry, the sequences of proteins in these tests, tags left out.
UniProt Q99572, whole entry: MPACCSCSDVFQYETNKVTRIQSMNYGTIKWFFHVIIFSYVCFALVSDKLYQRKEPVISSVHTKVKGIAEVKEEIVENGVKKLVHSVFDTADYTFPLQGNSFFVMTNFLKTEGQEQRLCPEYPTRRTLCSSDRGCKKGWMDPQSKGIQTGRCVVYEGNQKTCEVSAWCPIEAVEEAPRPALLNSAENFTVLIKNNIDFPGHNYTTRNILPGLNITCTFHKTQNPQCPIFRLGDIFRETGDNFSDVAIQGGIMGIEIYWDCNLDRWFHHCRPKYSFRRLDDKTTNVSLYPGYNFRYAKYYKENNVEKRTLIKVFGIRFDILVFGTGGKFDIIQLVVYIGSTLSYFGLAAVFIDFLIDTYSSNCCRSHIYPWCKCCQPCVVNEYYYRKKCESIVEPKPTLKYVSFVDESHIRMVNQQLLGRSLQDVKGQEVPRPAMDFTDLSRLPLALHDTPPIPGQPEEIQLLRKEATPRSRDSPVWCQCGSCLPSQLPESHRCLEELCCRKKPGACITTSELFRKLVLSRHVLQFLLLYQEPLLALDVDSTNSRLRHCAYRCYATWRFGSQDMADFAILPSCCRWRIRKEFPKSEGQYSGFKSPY

Target: human P2X7 (Homo sapiens, UniProt Q99572)
Test: ATP-induced YO-PRO-1 dye uptake in HEK-hP2X7 cells
Assay type: cell-based
Details: read-out: IC50 value (95% CI)

SMILES: O=C(O[C@@H]1Cc2c(O)cc(O)cc2O[C@@H]1c1cc(O)c(O)c(O)c1)c1cc(O)c(O)c(O)c1 [EGCG, epigallocatechin gallate]
- IC50: < 10 µM and 2.39 µM
